The values below come from PubChem BioAssay AID901 (National Center for Advancing Translational Sciences (NCATS), 2007).

By AC50 is commonly meant the midpoint of the concentration-response curve, whichever way the signal moves.

Some of the results follow. Further columns of the screen follow, without active or inactive calls. Most of these compounds were active or inconclusive in the main read-out, so they are no random draw. Potencies come from curve fits of mixed quality, noted in brackets.

The assay can be described thus: qHTS Assay for Identifying the Cell-Membrane Permeable IMPase Inhibitors. Conditions: CHO-M1 cells, IP1 accumulation, HTRF TR-FRET ratio; measured here: donor channel 620 nm AC50. In general terms: qHTS replaces the single test concentration by a dilution series.
On to `N#CC(C(=O)O)=C1CCCC1`, for which the AC50 is 3.16 µM [rising, partial curve, poor fit].

For the compound `O=C1c2ccccc2S(=O)(=O)N1CC1CC(c2ccccc2)=NO1` (configuration not stated), the AC50 was 0.794 µM [falling, full curve]. As for `O=C(CCc1ccc(S(=O)(=O)NCc2ccccc2)cc1)N1CCN(Cc2ccc3c(c2)OCO3)CC1`, the figure is 3.16 µM [rising, partial curve]. As for `O=C(Nc1ccn(Cc2c(F)c(F)cc(F)c2F)n1)c1ccc(COc2ccccc2Cl)cc1`, the figure is 0.794 µM [falling, single point]; as for `COc1ccc(-c2c3c([nH]c(=S)c2C#N)CCC3)cc1`, 12.6 µM [rising, partial curve]. Next, `Cc1ccnc(NS(=O)(=O)c2cccs2)c1`: 35.5 µM [falling, single point]; `CS(=O)(=O)N1CCN(c2ccccc2NC(=O)c2ccc3ccccc3c2)CC1`: 25.1 µM [falling, single point]. Take `COC(=O)CCN(C(=O)c1ccc(OC(C)=O)cc1)c1ccccn1`: the AC50 was 0.0251 µM [rising, partial curve, poor fit].

As to `c1ccc(Nc2ccc3c4c(cccc24)CC3)cc1`, the concentration at half-maximal activity (AC50) is 3.16 µM [falling, single point]. For `CCSc1cc(N2CCCC2)nc(-c2ccc(F)cc2)n1`, the AC50 is 0.2 µM [rising, full curve, poor fit].

Consider `Cc1ccc(SC(C)C(=O)N2CCCC2)cc1` (configuration not stated), for which the AC50 was 25.1 µM [falling, single point].

Regarding `Cc1cccc(Nc2nc(-c3ccccc3)nc3ccccc23)c1`, the half-maximal activity concentration (AC50) was 3.98 µM [falling, single point]. Take `Cc1ccc(S(=O)(=O)c2nc(-c3cccs3)oc2N2CCC(C)CC2)cc1`: the AC50 is 5.62 µM [falling, single point]. Next, `COc1ccc(-c2nn(C)c3sc(C(=O)NCc4ccco4)cc23)cc1OC`: 31.6 µM [rising, single point]; `COc1ccc(C(c2nnnn2CS(=O)(=O)c2ccc(C)cc2)N2CCN(c3ncccn3)CC2)cc1` (configuration not stated): 12.6 µM [rising, partial curve, poor fit]. Next, `CCC(C)OC(=O)/C(C#N)=C/c1ccc(-c2ccc(Br)cc2)o1` (configuration not stated): 3.98 µM [rising, single point]; `N#Cc1c(N)n(C2CCCCC2)c2nc3ccccc3nc12`: 0.631 µM [falling, full curve, poor fit]; `Cn1cc(SCC(N)=O)c2ccccc21`: 0.631 µM [falling, full curve]. As for `CCc1nnc2sc(-c3cc(-c4ccccc4)nc4ccccc34)nn12`, the figure is 22.4 µM [rising, partial curve]; as for `CC(C)(C)n1nc2c(c1NC(=O)COc1ccc(Cl)cc1)CSC2`, 6.31 µM [falling, single point]. As to `CCOC(=O)c1[nH]c2c(c1Cc1ccccc1)C(=O)CC(c1ccc(C(C)(C)C)cc1)C2` (configuration not stated), the AC50 was 35.5 µM [falling, single point]. Next, `CCCN(Cc1ccc(N(CC)CC)cc1)CC1CC1`: 0.00631 µM [falling, full curve, poor fit]; `NC(=O)Cc1cn(-c2ncc(C(F)(F)F)cc2Cl)c2ccccc12`: 12.6 µM [falling, partial curve]; `COc1cccc(C2N(c3ccccn3)C(=O)C3CCCN32)c1OC` (configuration not stated): 2 µM [rising, full curve, poor fit]. Next, `CCOC(=O)CC(=O)CSc1nc2c(sc(=S)n2-c2ccccc2)c(=O)[nH]1`: 5.01 µM [rising, single point]; `CCCC1c2ccc(C)n2CCN1C(=O)Nc1ccccc1Cl` (configuration not stated): 1.26 µM [falling, full curve]; `COCCn1nnnc1CN1CCN(c2cccc(C(F)(F)F)c2)CC1`: 3.98 µM [rising, full curve].

Regarding `CCOc1ccc(NCCC(=O)c2ccc3c(c2)OCO3)cc1`, the AC50 was 2.82 µM [falling, full curve, poor fit]. Next, `C=CCN1C(=O)NC2(CCCCC2)C1=O`: 0.00501 µM [falling, full curve, poor fit]. Next, `O=c1[nH]c(N2CCN(c3ccccc3)CC2)nc2c1CCC2`: 35.5 µM [falling, single point]. As for `O=C(C1=C(O)C(=O)N(CCc2ccccc2)C1c1cccnc1)c1ccco1` (configuration not stated), the figure is 6.31 µM [rising, partial curve, poor fit]; as for `COC(=O)Nc1sc2c(c1C(=O)N1CCOCC1)CCC(C)C2` (configuration not stated), 0.141 µM [rising, full curve, poor fit]; as for `Cn1c(=O)c2c(nc(N3CCCCCC3)n2Cc2cccc3ccccc23)n(C)c1=O`, 3.16 µM [falling, partial curve]. As for `CCOc1cccc(C2C(C(=O)c3ccc(C)o3)=C(O)C(=O)N2c2nccs2)c1` (configuration not stated), the AC50 is 20 µM [rising, partial curve, poor fit]. As for `CC1CCc2c(sc3ncnc(N4CCOCC4)c23)C1` (configuration not stated), the figure is 3.16 µM [rising, single point]; as for `COc1ccc2c(Cl)c(C(N)=O)sc2c1`, 12.6 µM [rising, partial curve]. As for `Cc1nnc(SCC(=O)Nc2ccc3c(c2)OCCO3)n1N`, the figure is 0.251 µM [falling, full curve, poor fit]; as for `Cn1c(NC(=O)c2ccc(Cl)cc2)c(-c2ccccn2)c(=O)c2ccccc21`, 31.6 µM [rising, single point]. As for `C=CCNC(=O)CSc1nnc(-c2cccs2)o1`, the figure is 0.00316 µM [falling, full curve]. Take `Cc1ccc(-c2nnc(Nc3ccc(S(N)(=O)=O)cc3)c3ccccc23)cc1S(=O)(=O)N1CCCCC1`: the AC50 is 17.8 µM [rising, single point]. Next, `COc1cc(OC)cc(C(=O)Nc2ccc3oc(-c4cccc5c(Br)cccc45)nc3c2)c1`: 0.794 µM [falling, single point]; `O=C(N/N=C/c1ccc(Cl)c([N+](=O)[O-])c1)c1ccc2nc[nH]c2c1`: 0.794 µM [rising, full curve, poor fit].

`CN1/C(=N\O)c2cccc3cccc1c23`: the AC50 was 0.0316 µM [falling, full curve, poor fit]. As for `CCc1nc(N)nc2c1C(=O)CC(C)(C)C2`, the figure is 0.0631 µM [rising, partial curve, poor fit]; as for `CC(C)(Oc1ccc(Cl)cc1)C(=O)Nc1nc2ccc(S(C)(=O)=O)cc2s1`, 0.355 µM [falling, partial curve, poor fit]. As for `O=C(c1ccc(F)cc1)n1nc(-c2ccccc2)nc1NCc1ccco1`, the AC50 is 0.00501 µM [falling, full curve, poor fit]. As for `COc1ccc(Cn2nnnc2C(c2cccs2)N2CCCCCC2)cc1` (configuration not stated), the figure is 20 µM [falling, single point]. As for `CC1=C(C(=O)Nc2ccccc2)C(c2ccc(C)o2)n2c(s/c(=C\c3ccco3)c2=O)=N1` (configuration not stated), the figure is 0.0158 µM [falling, full curve, poor fit]. Next, `FC(F)(F)c1cccc(Nc2ncnc3ccccc23)c1`: 0.0501 µM [falling, full curve]; `CC1(C)CC2CC(C)(CN2C(=O)c2cccs2)C1` (configuration not stated): 0.00447 µM [falling, full curve, poor fit]; `N#CCCN1CCN(S(=O)(=O)c2ccc(S(=O)(=O)N3CCCC3)cc2)CC1`: 14.1 µM [falling, single point].

In the case of `C/C(CCc1oc2ccccc2c1-c1ccc(C)o1)=N/O`, the AC50 is 0.501 µM [falling, single point]. As for `Cc1cc(-c2ccccc2)[nH]c(=O)c1S(=O)(=O)c1ccc(Cl)cc1`, the figure is 0.794 µM [falling, full curve, poor fit].

As to `CC(C)(C)n1c(=O)[nH]c2c(c1=O)CCC2`, the AC50 was 0.2 µM [rising, full curve, poor fit]. As for `COC(=O)CSc1nnc(-c2ccncc2)n1N`, the figure is 3.16 µM [rising, partial curve]. Consider `O=C(CN1C(=O)c2ccccc2S1(=O)=O)NC1CCCCCC1`, for which the AC50 is 35.5 µM [falling, single point]. Next, `O=C(NC1CCCCC1)C12CC3CC(C1)CC(n1cncn1)(C3)C2`: 0.2 µM [rising, full curve, poor fit]; `CCCCOc1cccc(C2(C(=O)O)CCCC2)c1`: 0.0126 µM [falling, full curve]; `CC(C)(C)c1ccc(C(=O)CC(=O)c2cc(Cl)ccc2O)cc1`: 5.01 µM [falling, partial curve]. As for `Cc1nn(CC#N)c(=O)n1-c1ccc(F)cc1`, the figure is 0.794 µM [falling, full curve, poor fit]. As for `CCOC(=O)c1[nH]c2ccc(OC)cc2c1NC(=O)C(C)N1CCC2(CC1)OCCO2` (configuration not stated), the figure is 31.6 µM [falling, single point]; as for `Cc1ccc(S(=O)(=O)c2nc(-c3ccc(F)cc3)oc2SCC(N)=O)cc1`, 31.6 µM [falling, partial curve]; as for `CCOC(=O)C(=O)Nc1nnc(Cc2ccc(OC)c(OC)c2)s1`, 0.126 µM [rising, partial curve].

For the compound `O=C(Nc1ccc(-c2nnc3n2CCCCC3)cc1)c1cnccn1`, the concentration at half-maximal activity (AC50) was 0.00447 µM [falling, full curve, poor fit]. Consider `Nc1nc(CSc2nc3ccccc3s2)nc(Nc2ccccc2)n1`, for which the AC50 was 6.31 µM [falling, single point]. As for `Cc1c(NC(=O)CN2CCN(C(=O)c3ccco3)CC2)c(=O)n(-c2ccccc2)n1C`, the figure is 0.0501 µM [falling, full curve, poor fit]; as for `O=[N+]([O-])c1ccccc1/C=N/NC1=NCCCCC1`, 3.55 µM [falling, single point].
